Four substances from article PMC9939006 can be followed below.

Sequences of proteins named here, by UniProt entry; tags and fusion partners are left off.
UniProt Q92782: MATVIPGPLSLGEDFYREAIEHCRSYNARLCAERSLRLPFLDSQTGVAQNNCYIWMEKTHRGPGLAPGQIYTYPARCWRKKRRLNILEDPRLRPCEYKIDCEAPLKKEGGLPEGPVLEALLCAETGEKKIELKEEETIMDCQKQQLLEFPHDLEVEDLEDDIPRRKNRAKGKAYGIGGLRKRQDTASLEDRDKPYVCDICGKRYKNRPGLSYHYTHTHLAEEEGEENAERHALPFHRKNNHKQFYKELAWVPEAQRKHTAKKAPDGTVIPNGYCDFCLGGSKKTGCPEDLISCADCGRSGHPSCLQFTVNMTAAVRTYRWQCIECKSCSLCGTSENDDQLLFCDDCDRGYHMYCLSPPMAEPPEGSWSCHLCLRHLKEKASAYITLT
UniProt Q4VC05: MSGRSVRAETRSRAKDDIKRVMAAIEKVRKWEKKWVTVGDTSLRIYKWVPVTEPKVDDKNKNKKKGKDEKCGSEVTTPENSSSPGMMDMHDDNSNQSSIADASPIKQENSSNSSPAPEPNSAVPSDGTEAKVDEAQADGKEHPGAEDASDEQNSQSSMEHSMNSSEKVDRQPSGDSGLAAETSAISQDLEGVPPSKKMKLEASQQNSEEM
UniProt Q9BQE9: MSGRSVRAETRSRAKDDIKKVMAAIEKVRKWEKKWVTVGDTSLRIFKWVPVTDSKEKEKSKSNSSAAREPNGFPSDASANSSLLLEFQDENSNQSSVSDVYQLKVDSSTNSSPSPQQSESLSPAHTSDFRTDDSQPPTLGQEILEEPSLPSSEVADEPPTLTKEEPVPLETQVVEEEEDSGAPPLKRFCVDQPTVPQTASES

Test [1] deals with i∆HSA (inducible BRG1 with the HSA domain deleted, with C-terminal V5 tag) (human) (UniProt P51532). As to the kind of experiment: affinity purification with mass spectrometry; anti-V5 immunoprecipitation of iBRG1 or i∆HSA from SW-13 derivative cells after 24 h doxycycline; cells crosslinked with 1% formaldehyde, high-salt extraction (420 mM NaCl), nuclease, diluted 1:5 in IP buffer (100 mM NaCl, 0.1% NP-40), Protein G Dynabeads, on-bead trypsin digest, LC-MS; three biological replicates.

For test [2], the target named is iBRG1 (inducible WT BRG1, Brahma-related gene 1, with C-terminal V5 tag) (human) (UniProt P51532). Described as above.

These are yes or no findings as the source states them, for the method shown. In cells and extracts the contact can be indirect. These calls come from enrichment with a bait or labelling near it, and not all partners need be listed. For some of these results: A no says only that the protein was not detected with the bait.

Consider BAF45b (from UniProt Q92782 1-387), for which the binding entry in test [1] was “no binding”.

Regarding “B-cell CLL/lymphoma 7 protein family member C (BCL7C) (from UniProt Q8WUZ0 1-217)”, the binding entry in test [2] is “binds”; in test [1] it was “no binding”. With “B-cell CLL/lymphoma 7 protein family member A (BCL7A) (from UniProt Q4VC05 1-210)”, the results for the binding entry in test [2] and in test [1] were “binds” and “no binding”, respectively. Consider “B-cell CLL/lymphoma 7 protein family member B (BCL7B) (from UniProt Q9BQE9 1-202)”, for which the binding entry in test [2] was “binds”; in test [1], “no binding”.
